Test system: different cancer cell lines
Test: In vitro cytotoxicity, Development Therapeutics Program, summary over all cell lines
Type: cell-based
Conditions: 1.0×10^−5 M
Description: From the in vitro experiments of the Development Therapeutics Program of the Cancer Research Institute, the United States, it was known that the synthetic heterocyclic anthraquinone derivatives of the present invention have different inhibition levels to the different cancer cell lines under the concentration of 1.0×10^−5 M. Please refer to Table 2, which is the result of in vitro cytotoxicity of 2,7-disubstituted anthraquinone derivatives of the present invention.

Compound | Cellular growth rate (%), Delta Value [%] | Cellular growth rate (%), Range [%]
CN(C)CC(=O)Nc1ccc2c(c1)C(=O)c1cc(NC(=O)CN(C)C)ccc1C2=O [Compound 8, 2,7-Bis[2-(dimethylamino)acetamido]anthraquinone] | 112.21 | 185.81
O=C(CCN1CCCC1)Nc1ccc2c(c1)C(=O)c1cc(NC(=O)CCN3CCCC3)ccc1C2=O [Compound 18, 2,7-Bis[3-(pyrrolidino)propionamido]anthraquinone] | 76.18 | 131.05
CC(=O)Nc1ccc2c(c1)C(=O)c1cc(NC(C)=O)ccc1C2=O [Compound 26, 2,7-Bis(acetamido)anthraquinone] | 95.45 | 129.44
O=C1c2ccc(NC(=O)C3CC3)cc2C(=O)c2cc(NC(=O)C3CC3)ccc21 [Compound 32, 2,7-Bis(cyclopropanecarbonamido)anthraquinone] | 89.85 | 134.51
CCN(CC)CCC(=O)Nc1ccc2c(c1)C(=O)c1cc(NC(=O)CCN(CC)CC)ccc1C2=O [Compound 16, 2,7-Bis[3-(diethylamino)propionamido]anthraquinone] | 103.75 | 170.17
